Laboratory results taken from PubChem BioAssay AID2517 (National Center for Advancing Translational Sciences (NCATS), 2010).
Several values for one entry are separate records, joined by “and”; a condition that tells them apart may be missing. Equal entries are not always repeated. The campaign covered roughly 350,000 compounds. About 1,200 (0.34%) were called active. The shares of active, inactive and inconclusive entries below differ from those in the screen. Calls come from the whole dose curve; as a rule, active = well fitted inhibition curve with a large enough effect; inconclusive = small, poorly fitted or top-dose-only effect; inactive = no such curve, though single readings can be large or run the other way. Potencies of inconclusive entries are doubtful fits and often do not repeat.

Chains of the proteins cited; added tags and fusions are not shown.
UniProt P27695, whole entry, looked up: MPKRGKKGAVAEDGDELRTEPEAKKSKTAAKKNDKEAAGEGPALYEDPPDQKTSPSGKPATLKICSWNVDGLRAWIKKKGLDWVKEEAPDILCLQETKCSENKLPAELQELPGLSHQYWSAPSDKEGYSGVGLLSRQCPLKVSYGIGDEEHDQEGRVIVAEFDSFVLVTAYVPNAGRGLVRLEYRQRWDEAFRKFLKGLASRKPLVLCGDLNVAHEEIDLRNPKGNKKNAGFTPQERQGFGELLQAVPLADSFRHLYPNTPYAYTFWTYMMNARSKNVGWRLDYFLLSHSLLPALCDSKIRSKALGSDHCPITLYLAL

Biological target: DNA repair nuclease/redox regulator APEX1 (Homo sapiens) (UniProt P27695)
Test: qHTS Assay for Inhibitors of the Human Apurinic/apyrimidinic Endonuclease 1 (APE1); note: nearly all actives have a fitted effect of over 55% in size;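 for activity change, negative = inhibition: plate controls were vehicle for no effect and reference inhibitor for full effect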
Conditions: recombinant APE1, TAMRA/BHQ-2 abasic DNA cleavage fluorescence; activity change, negative = inhibition: at 65.8 µM (top of the series)
Outline: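 Compound pre-exposure to 0.75 nM APE1, 15 min at ambient temperature. Reaction initiated with 50 nM TAMRA/BHQ-2 THF substrate, read immediately in kinetic mode, 525 nm excitation, 598 nm emission.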
Potency is the fitted concentration of half-maximal effect.

Row | Compound | Potency | activity change, negative = inhibition
1 | CCOC(=O)c1sc(NCc2ccco2)c(-c2nc3ccccc3s2)c1N | inconclusive: 0.0032 µM [inhibitor, full curve, poor fit] | –
2 | CCc1ccc(/C=N/N2CCN(c3ccccn3)CC2)cc1 | inconclusive: 6.31 µM [inhibitor, single point] | –
3 | Nc1nc(SCc2ccccc2)c2[nH]cnc2n1 | – | inactive: 40.7%
4 | CC(C)CC(COCc1cccc(Cl)c1)N1CCN(C(=O)c2cccc(C(F)(F)F)c2)CCC1=O (stereo unspecified) | inconclusive: 5.01 µM [inhibitor, single point] | –
5 | CC(=O)OC1CC2C(C)(C)C(O)CC[C@@]2(C)C2CC[C@@]3(C)C(c4ccoc4)OC(=O)C4OC43[C@]12C (stereo partly specified) | inconclusive: 28.2 µM [inhibitor, partial curve] | –
6 | Brc1ccc(C2=NC(Cc3ccccc3)CO2)cc1 (stereo unspecified) | inconclusive: 5.62 µM [inhibitor, partial curve] | –
7 | O=c1oc2ccc(F)cc2c2c1C1O[C@](c3ccsc3)(Cc3c1ccc1ccccc31)O2 | inconclusive: 3.44 µM [inhibitor, single point] | –
8 | Cc1ccc(/C=N/NC(=O)CNC(=O)c2cccs2)cc1 | – | inactive: 21.1%
9 | Cc1ccc(S(=O)(=O)CCCS(=O)(=O)c2ccc(C)cc2)cc1 | – | inactive: -2.79%
10 | O=C(COc1ccc(Cl)cc1)NCCC1=CCCCC1 | inconclusive: 8.91 µM [inhibitor, single point] | –
11 | CCn1c(C)nc2cc(C(=O)N=Nc3c(O)[nH]c4c(C)cc(C)cc34)ccc21 | inconclusive: 0.447 µM [inhibitor, single point] | –
12 | COc1cccc(Nc2ncc3nc(CCc4ccccc4)c(=O)n(C4CC4)c3n2)c1 | – | inactive: 0.0249%
13 | CCOC(=O)/C(C#N)=C/c1c[nH]c2ccccc12 | inconclusive: 44.7 µM [inhibitor, single point] | –
14 | CCOc1cc(/C=C2\SC(=S)N(C(C(=O)O)c3ccccc3)C2=O)ccc1O (stereo unspecified) | – | inactive: 12.1%
15 | CCOC(=O)C1C(=O)C=C(/C=C/c2ccc(N(C)C)cc2)CC1c1ccccc1 (stereo unspecified) | – | inactive: -2.78%
16 | CC1=C(C(=O)N2CCOCC2)C(c2ccc(O)cc2)NC(=S)N1 (stereo unspecified) | – | inactive: 5.93%
17 | COc1ccc(-n2ncc3c2CC(C)(C)CC3NC(=O)CN2CCOC2=O)cc1 (stereo unspecified) | inconclusive: 23.8 µM [inhibitor, single point] | –
18 | Nc1c(C(=O)NCCN2CCOCC2)c2nc3ccccc3nc2n1CCc1ccccc1F | inconclusive: 44.7 µM [inhibitor, single point] | –
19 | CC1Nc2ccccc2C(=O)N1NS(C)(=O)=O (stereo unspecified) | inconclusive: 39.8 µM [inhibitor, single point] | –
20 | COc1cc(/C=C2\SC(c3ccccc3)=NC2=O)cc(Cl)c1O | – | inactive: 17.6%
21 | CCOc1cc(/C=C/c2cccc[n+]2C)ccc1OCC(=O)Nc1ccc(C)cc1 | – | inactive: 16.3%
22 | CC1CC=CC2C1C(=O)N(Cc1ccccc1)C2c1ccc(-c2cc3ccccc3s2)cc1F (stereo unspecified) | – | inactive: -3.88%

Arranged by SMILES length (high to low): part of the list above
Row | Compound | Potency | activity change, negative = inhibition
11 | CCn1c(C)nc2cc(C(=O)N=Nc3c(O)[nH]c4c(C)cc(C)cc34)ccc21 | inconclusive: 0.447 µM [inhibitor, single point] | –
14 | CCOc1cc(/C=C2\SC(=S)N(C(C(=O)O)c3ccccc3)C2=O)ccc1O (stereo unspecified) | – | inactive: 12.1%
18 | Nc1c(C(=O)NCCN2CCOCC2)c2nc3ccccc3nc2n1CCc1ccccc1F | inconclusive: 44.7 µM [inhibitor, single point] | –

Remaining list, next part.

Row | Compound | Potency | activity change, negative = inhibition
23 | COc1cccc2c1C(=O)c1c(O)c3c(c(O)c1C2=O)C[C@@](O)(C(=O)CO)C[C@@H]3OC1C[C@@H](N)[C@H](O)[C@H](C)O1 (stereo partly specified) | active: 10 µM | –
24 | COc1cccc(CNC(=O)Cc2ccc(NC(=O)C3=C(C)OCCS3)cc2)c1 | – | inactive: 18%
25 | CCOc1ncccc1C(=O)OCC(=O)Nc1ccc(S(=O)(=O)N2CCOCC2)cc1 | inconclusive: 0.0141 µM [inhibitor, full curve, poor fit] | –
26 | COc1ccc(N(C(C)C(=O)NN=C2CCCC2)S(C)(=O)=O)cc1 (stereo unspecified) | inconclusive: 44.7 µM [inhibitor, single point] | –
27 | CCOC(=O)C1=C(Cn2cnc3ccccc32)NC(=O)NC1c1ccc(OC)cc1 (stereo unspecified) | inconclusive: 3.55 µM [inhibitor, single point] | –
28 | CCOc1ccc(NC(=O)CSc2nnc(-c3cc(C)[nH]n3)n2N)cc1 | inconclusive: 8.44 µM [inhibitor, single point] | –
29 | COc1ccc(NC(=O)Cc2ccc(Cl)c(Cl)c2)cn1 | inconclusive: 3.16 µM [inhibitor, single point] | –
30 | CCCc1nc2scc(-c3ccc(C)cc3)c2c(=O)n1N | inconclusive: 44.7 µM [inhibitor, single point] | –
31 | O=C1c2cccc([N+](=O)[O-])c2C(=O)N1c1ccccc1 | – | inactive: 10.9%
32 | CCOC(=O)N1CCN(C(=O)/C(=C/c2cccc3ccccc23)NC(=O)c2ccc(OC)cc2)CC1 | inconclusive: 14.1 µM [inhibitor, partial curve] | –
33 | CCOC(=O)C1=C(O)/C(=C/c2ccc(-c3ccccc3C(=O)O)o2)SC1=Nc1ccc(OC)cc1 | inconclusive: 10 µM [inhibitor, partial curve, poor fit] | –
34 | C[C@@H](c1ccccc1)N1C(=O)[C@H]2[C@H]3[C@H](O)[C@H](O)C/C(=N/OC[C@@H](O)COCc4ccco4)[C@@H]3CC[C@@H]2C1=O | inconclusive: 3.55 µM [inhibitor, single point] | –
35 | Clc1ccccc1CSc1nnc(-c2ccco2)c(-c2ccco2)n1 | inconclusive: 31.6 µM [inhibitor, single point] | –
36 | CC(NC(=O)/C(C#N)=C/c1ccc(OCC(=O)O)cc1)c1ccccc1 (stereo unspecified) | – | inactive: -0.254%
37 | NS(=O)(=O)c1ccc(N=Nc2ccc(=O)[nH]c2O)cc1 | active: 15.8 µM | –
38 | O=C(O)[C@H]1O[C@@H](Oc2ccc3ccc(=O)oc3c2)[C@H](O)[C@@H](O)[C@@H]1O | – | inactive: 1.71%
39 | O=C(CSc1nc2c(cnn2-c2ccc(F)cc2)c(=O)[nH]1)Nc1nccs1 | inconclusive: 3.16 µM [inhibitor, single point] | –
40 | CC(=O)N=Cc1c(C)c(C#N)c(=O)n(C)c1O | – | inactive: -3.58%
41 | Cc1c(N2C(=O)C3C4C=CC(C4)C3C2=O)c(=O)n(-c2ccccc2)n1C (stereo unspecified) | inconclusive: 25.1 µM [inhibitor, single point] | –
42 | CC1=NOC(=O)/C1=C/c1ccc(O)cc1 | – | inactive: -2.57%
43 | COC(=O)CN=C1OC(=O)N2C(=O)C3=C4C(C[C@H]5C(=O)N(c6ccccc6)C(=O)[C@H]5[C@H]4[C@@]12Cc1ccccc1)[C@H]1C(=O)N(c2ccccc2)C(=O)[C@H]1[C@H]3C (stereo partly specified) | inconclusive: 0.631 µM [inhibitor, full curve, poor fit] | –
44 | CC1OC(OCC2OC(Oc3c(-c4ccc(O)cc4)oc4cc(O)cc(O)c4c3=O)C(O)C(O)C2O)C(O)C(O)C1O (stereo unspecified) | active: 3.55 µM | –

Row | Compound | Potency | activity change, negative = inhibition
45 | O=C(CSc1nnc(Cc2cccs2)n1Cc1ccco1)Nc1ccc(Cl)cc1Cl | inconclusive: 1.58 µM [inhibitor, full curve, poor fit] | –
46 | c1ccc(C(O[C@H]2CCCN(CCc3ccc4c(c3)OCO4)C2)c2ccccc2)cc1 | – | inactive: -4.29%
47 | Nc1ccc(O)c(C(=O)O)c1 | active: 2 µM and active: 7.08 µM | –
48 | Fc1ccc(NC(=S)Nc2ccccc2N2CCOCC2)cc1Cl | inconclusive: 5.01 µM [inhibitor, partial curve] | –
49 | O=C(NC1(C(F)(F)F)NC(=O)N(Cc2cccnc2)C1=O)c1cccs1 (stereo unspecified) | inconclusive: 6.31 µM [inhibitor, single point] | –
50 | CCOc1ccc(NC(=O)CSc2nc(NS(=O)(=O)c3ccc(C)cc3)cc(=O)[nH]2)cc1 | – | inactive: 12.8%
51 | COc1ccc2[nH]c(C(=O)Nc3cccc(C)n3)cc2c1 | inconclusive: 0.0251 µM [inhibitor, full curve, poor fit] | –
52 | Cc1c(NC(=O)c2ccco2)cccc1-c1nc2cccnc2s1 | – | inactive: -6.54%
53 | COc1ccccc1C(=O)OCC(=O)NC(=O)NC1CCCCC1 | inconclusive: 26.7 µM [inhibitor, single point] | –
54 | NC(=O)[C@H]1CC2(CC(c3cccc(NC(=O)CC(c4ccccc4)c4ccccc4)c3)=NO2)CN1C(=O)c1ccccc1C(=O)c1ccccc1 (stereo partly specified) | inconclusive: 39.8 µM [inhibitor, single point] | –
55 | CN(C)CCCNC(=O)c1ccc(Cl)c(S(=O)(=O)N(C)c2ccccc2)c1 | inconclusive: 31.6 µM [inhibitor, single point] | –
56 | COc1ccc(CCNC(=O)COC(=O)CCC(=O)c2ccc(F)cc2)cc1 | inconclusive: 22.4 µM [inhibitor, single point] | –
57 | Cn1nc(C(F)(F)F)c(-c2ccc(Br)cc2)c1NC(=O)Nc1ccc(F)cc1F | inconclusive: 20 µM [inhibitor, single point] | –
58 | CCOc1ccc2[nH]c(=O)c(=O)[nH]c2c1 | inconclusive: 22.4 µM [inhibitor, single point] | –
59 | Cc1c(C)c2c(c(C)c1OC(=O)c1cccnc1)CC[C@@](C)(CCC[C@H](C)CCC[C@H](C)CCCC(C)C)O2 | inconclusive: 22.4 µM [inhibitor, single point] | –
60 | O=C(CCN1CCN(c2ccccc2)CC1)Nc1cccc(Br)c1 | inconclusive: 2.24 µM [inhibitor, partial curve, poor fit] | –
61 | NC(=O)C1CCN(C(=O)CCC(=O)c2ccc(Br)cc2)CC1 | inconclusive: 20 µM [inhibitor, single point] | –
62 | Cc1noc(C)c1COc1ccc(C(=O)OCC(=O)N2c3ccccc3NC(=O)C2(C)C)cc1 | inconclusive: 31.6 µM [inhibitor, partial curve] | –
63 | NC(=O)C1CCN(C(=O)CN(C2CCCCC2)S(=O)(=O)c2ccc(F)cc2)CC1 | – | inactive: 57.6%
64 | CCc1ccc(C(=O)Cn2ncc(Cl)c(Cl)c2=O)cc1 | inconclusive: 31.6 µM [inhibitor, single point] | –
65 | CC(OC(=O)c1ccc([N+](=O)[O-])s1)C(=O)Nc1ncc(Cl)cc1Cl (stereo unspecified) | inconclusive: 22.4 µM [inhibitor, single point] | –
66 | CN(C)CCCN1c2ccccc2CCc2ccc(Cl)cc21 | inconclusive: 0.282 µM [inhibitor, full curve, poor fit] | –
